Article PMC5861098
No constants are given. Whether binding was seen depends on the method and setting. In cells and extracts the contact can be indirect. Binding calls can cover weak binding; strength is not graded here.

Columns and labels:
Assay in all cases: crystal structure; co-crystallization of 4 mg/mL purified Kl Dcp1–Dcp2(E152Q)–Edc3 (co-expressed, co-purified) with 1 mM Kl Edc1 peptide, 6 mM two-headed cap analog and 10 mM MgCl2; hanging drop, 4 °C; 2.84 Å, space group C2, two copies of the complex in the asymmetric unit; both purified
[1] = molecular target: K. lactis Dcp2(1–275, E152Q) (K. lactis)
[2] = molecular target: K. lactis Dcp1(1–188)–Dcp2(1–275, E152Q)–Edc3(1–66) complex (K. lactis)
[3] = molecular target: K. lactis Dcp1(1–188) (K. lactis)

Measured: binding

HSKCYAGATFATEAPQVTTLPKPSFV (peptide, UniProt Q6CYC5 355-380) [Kl Edc1(355-380) peptide]
binds: all assays above
